Measurements reported in paper PMC6770187.

Amino acid sequences for entries named in this document (tags omitted).
UniProt Q04690: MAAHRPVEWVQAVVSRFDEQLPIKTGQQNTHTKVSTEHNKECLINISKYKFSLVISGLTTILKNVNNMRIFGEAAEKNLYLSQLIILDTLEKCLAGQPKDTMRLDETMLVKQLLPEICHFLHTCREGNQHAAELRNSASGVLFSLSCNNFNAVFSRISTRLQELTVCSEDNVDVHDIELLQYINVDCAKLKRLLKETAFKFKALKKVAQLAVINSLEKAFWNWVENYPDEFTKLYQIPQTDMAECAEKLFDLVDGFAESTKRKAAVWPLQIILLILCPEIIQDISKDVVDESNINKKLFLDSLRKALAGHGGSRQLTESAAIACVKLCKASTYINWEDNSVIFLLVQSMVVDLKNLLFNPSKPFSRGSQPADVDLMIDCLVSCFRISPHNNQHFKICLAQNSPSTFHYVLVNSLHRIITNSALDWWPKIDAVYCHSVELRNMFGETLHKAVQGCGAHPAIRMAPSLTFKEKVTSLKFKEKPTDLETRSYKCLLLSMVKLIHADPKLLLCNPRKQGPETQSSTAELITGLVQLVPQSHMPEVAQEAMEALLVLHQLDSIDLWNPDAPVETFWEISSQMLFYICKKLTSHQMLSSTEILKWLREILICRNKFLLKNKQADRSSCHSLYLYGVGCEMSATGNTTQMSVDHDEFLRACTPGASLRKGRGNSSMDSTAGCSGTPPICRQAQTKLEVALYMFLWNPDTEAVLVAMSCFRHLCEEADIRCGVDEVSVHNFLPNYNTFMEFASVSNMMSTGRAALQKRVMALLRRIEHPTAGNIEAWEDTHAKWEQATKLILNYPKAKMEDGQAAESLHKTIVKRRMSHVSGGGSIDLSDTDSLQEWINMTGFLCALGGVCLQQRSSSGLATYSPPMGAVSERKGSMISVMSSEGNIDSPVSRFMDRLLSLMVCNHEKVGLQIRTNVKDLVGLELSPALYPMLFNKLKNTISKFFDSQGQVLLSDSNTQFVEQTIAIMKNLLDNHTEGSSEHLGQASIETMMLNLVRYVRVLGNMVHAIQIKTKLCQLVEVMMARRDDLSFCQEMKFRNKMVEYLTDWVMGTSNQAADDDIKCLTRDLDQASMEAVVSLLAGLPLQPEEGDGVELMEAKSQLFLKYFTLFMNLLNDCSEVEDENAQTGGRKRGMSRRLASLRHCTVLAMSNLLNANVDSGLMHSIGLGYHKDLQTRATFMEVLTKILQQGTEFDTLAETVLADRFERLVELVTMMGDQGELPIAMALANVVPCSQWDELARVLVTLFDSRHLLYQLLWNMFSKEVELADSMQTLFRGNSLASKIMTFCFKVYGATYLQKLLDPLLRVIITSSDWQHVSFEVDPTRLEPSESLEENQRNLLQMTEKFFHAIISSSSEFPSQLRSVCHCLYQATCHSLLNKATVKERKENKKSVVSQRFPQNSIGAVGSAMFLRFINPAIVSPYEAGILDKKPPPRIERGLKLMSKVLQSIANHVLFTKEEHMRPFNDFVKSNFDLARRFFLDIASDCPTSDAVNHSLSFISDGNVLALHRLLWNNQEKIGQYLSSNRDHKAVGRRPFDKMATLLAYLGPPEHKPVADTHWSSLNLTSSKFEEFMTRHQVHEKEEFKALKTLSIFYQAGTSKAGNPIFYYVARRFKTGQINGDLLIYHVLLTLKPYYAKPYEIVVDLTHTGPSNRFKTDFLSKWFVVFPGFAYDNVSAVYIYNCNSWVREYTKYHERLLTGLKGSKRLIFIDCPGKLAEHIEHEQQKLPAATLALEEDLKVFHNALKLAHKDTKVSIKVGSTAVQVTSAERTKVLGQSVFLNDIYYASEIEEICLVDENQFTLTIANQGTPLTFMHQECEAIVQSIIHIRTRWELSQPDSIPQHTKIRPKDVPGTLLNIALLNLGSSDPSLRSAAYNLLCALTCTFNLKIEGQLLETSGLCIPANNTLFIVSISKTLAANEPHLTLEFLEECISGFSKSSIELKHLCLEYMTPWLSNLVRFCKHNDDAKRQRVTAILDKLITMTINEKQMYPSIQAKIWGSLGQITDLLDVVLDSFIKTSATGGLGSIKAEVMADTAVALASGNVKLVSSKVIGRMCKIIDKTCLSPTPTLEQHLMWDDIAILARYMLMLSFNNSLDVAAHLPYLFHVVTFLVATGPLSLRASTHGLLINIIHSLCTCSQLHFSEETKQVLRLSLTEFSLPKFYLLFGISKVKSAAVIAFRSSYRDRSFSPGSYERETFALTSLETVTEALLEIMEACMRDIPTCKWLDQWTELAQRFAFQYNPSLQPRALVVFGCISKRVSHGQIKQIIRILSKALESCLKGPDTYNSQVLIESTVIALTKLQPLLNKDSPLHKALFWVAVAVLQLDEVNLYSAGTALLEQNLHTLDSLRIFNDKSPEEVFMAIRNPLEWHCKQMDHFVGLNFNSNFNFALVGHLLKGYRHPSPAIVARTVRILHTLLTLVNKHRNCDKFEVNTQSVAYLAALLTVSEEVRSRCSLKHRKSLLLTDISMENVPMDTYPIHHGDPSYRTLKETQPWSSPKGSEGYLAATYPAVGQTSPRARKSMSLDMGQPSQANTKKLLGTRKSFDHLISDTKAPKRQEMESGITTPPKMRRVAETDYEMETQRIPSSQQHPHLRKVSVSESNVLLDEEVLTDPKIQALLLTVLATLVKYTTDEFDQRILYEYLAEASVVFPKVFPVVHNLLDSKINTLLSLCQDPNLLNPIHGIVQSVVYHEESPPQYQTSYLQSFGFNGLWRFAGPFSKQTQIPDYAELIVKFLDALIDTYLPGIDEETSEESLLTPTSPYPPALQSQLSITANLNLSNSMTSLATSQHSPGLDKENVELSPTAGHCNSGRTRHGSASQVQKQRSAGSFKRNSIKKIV
UniProt Q9UBQ5: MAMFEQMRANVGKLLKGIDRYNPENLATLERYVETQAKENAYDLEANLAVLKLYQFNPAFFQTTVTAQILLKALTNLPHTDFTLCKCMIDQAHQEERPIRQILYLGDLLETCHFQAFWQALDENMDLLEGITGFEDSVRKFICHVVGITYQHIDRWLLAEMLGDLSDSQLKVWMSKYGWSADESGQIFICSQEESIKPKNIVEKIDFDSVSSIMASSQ
UniProt Q9Y6M1: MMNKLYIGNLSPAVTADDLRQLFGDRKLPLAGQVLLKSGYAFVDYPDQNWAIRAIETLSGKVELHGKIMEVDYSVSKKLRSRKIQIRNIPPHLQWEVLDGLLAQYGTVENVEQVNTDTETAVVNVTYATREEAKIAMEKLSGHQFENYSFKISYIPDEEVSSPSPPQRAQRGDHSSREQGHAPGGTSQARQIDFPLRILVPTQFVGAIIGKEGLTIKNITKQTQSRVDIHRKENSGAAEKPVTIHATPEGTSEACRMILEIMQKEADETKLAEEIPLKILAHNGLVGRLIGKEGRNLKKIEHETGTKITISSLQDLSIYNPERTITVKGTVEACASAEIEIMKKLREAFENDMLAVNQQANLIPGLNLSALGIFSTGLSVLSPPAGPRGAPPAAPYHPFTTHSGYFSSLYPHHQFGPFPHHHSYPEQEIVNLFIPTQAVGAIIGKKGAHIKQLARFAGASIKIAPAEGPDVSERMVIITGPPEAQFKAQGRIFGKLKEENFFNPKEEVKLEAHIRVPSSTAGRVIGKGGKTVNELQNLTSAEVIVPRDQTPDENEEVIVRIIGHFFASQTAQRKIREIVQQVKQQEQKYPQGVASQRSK
UniProt Q15323: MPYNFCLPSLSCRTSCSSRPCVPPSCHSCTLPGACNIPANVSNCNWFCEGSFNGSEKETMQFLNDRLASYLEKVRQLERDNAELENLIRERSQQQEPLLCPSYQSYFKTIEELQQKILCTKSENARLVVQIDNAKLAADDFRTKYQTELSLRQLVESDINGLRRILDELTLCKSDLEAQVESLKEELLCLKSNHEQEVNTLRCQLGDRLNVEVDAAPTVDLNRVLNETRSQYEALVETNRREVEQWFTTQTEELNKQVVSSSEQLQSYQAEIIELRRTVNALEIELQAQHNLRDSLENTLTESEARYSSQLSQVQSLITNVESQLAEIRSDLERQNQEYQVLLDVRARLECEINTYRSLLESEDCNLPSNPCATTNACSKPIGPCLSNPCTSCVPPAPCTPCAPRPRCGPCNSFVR
UniProt P46379: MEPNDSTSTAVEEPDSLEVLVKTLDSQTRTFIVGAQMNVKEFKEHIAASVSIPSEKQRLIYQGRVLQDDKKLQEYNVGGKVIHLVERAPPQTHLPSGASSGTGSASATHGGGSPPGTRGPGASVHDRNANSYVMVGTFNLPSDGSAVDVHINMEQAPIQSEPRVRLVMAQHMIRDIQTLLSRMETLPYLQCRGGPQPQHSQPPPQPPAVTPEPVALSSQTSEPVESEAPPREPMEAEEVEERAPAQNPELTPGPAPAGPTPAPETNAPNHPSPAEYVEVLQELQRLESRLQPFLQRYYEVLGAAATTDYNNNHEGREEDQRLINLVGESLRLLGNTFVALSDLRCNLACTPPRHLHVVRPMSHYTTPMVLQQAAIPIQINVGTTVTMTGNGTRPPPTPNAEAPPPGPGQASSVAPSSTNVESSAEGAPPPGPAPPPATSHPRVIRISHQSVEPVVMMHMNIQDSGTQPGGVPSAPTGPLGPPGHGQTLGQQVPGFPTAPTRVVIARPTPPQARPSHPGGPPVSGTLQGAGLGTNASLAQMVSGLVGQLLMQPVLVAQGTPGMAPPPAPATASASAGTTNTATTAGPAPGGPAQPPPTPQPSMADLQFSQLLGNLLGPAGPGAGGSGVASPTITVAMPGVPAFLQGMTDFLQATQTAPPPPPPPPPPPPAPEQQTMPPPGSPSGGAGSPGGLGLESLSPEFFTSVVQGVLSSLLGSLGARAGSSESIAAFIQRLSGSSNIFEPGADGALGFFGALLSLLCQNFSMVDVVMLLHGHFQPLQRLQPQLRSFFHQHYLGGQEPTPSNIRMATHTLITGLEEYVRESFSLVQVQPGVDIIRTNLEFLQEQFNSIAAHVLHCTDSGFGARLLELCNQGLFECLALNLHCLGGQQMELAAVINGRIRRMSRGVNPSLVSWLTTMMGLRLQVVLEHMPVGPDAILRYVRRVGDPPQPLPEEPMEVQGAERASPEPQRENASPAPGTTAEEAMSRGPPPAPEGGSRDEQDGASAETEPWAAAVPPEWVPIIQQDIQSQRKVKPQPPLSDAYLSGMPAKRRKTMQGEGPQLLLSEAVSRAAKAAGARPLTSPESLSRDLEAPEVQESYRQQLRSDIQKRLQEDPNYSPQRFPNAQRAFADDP
UniProt P62308: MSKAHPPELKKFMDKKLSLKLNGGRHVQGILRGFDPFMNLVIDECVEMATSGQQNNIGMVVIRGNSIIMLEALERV
UniProt O75533: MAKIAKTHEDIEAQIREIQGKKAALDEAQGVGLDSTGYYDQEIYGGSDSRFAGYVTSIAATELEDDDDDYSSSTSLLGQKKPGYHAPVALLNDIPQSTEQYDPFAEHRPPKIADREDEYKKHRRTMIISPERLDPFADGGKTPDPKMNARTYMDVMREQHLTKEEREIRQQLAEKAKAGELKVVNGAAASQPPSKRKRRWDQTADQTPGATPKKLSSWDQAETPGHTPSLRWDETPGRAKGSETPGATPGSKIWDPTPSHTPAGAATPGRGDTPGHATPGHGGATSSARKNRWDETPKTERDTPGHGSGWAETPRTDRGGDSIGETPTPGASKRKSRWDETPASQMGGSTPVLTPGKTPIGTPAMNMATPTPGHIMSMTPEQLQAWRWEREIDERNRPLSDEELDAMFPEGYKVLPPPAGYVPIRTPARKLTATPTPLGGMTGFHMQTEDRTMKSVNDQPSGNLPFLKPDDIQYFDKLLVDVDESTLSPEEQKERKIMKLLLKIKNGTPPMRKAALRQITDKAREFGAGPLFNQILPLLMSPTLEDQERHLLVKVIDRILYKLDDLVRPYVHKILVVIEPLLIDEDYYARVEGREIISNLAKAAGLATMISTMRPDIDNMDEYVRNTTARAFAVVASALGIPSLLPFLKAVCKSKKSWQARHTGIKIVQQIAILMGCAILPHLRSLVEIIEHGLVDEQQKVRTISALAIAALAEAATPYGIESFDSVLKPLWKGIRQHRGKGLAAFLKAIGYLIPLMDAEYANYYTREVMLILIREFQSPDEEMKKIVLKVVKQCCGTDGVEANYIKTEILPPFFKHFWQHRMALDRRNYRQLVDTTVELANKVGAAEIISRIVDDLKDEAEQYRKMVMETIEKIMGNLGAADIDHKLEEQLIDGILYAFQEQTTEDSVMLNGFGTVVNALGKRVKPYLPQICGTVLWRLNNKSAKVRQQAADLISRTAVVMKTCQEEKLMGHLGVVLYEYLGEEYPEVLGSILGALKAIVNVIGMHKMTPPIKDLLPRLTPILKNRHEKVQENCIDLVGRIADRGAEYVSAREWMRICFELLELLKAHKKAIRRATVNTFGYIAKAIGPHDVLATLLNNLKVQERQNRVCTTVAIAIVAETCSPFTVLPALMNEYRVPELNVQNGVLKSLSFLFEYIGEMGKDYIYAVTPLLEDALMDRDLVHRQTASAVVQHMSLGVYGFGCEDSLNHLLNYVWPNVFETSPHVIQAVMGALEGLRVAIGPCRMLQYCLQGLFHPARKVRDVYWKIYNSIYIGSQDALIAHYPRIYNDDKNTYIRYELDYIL

B1: Dermcidin (protein, UniProt P81605 20-110)
chain: YDPEAASAPGSGNPCHEASAAQKENAGEDPGLARQAPKPRKQRSSLLEKGLDGAKKAVGGLGKLGKDAVEDLESVGKGAVHDVKDVLDSVL
B2: Keratin 13 (protein, UniProt P13646 1-458)
chain: MSLRLQSSSASYGGGFGGGSCQLGGGRGVSTCSTRFVSGGSAGGYGGGVSCGFGGGAGSGFGGGYGGGLGGGYGGGLGGGFGGGFAGGFVDFGACDGGLLTGNEKITMQNLNDRLASYLEKVRALEEANADLEVKIRDWHLKQSPASPERDYSPYYKTIEELRDKILTATIENNRVILEIDNARLAADDFRLKYENELALRQSVEADINGLRRVLDELTLSKTDLEMQIESLNEELAYMKKNHEEEMKEFSNQVVGQVNVEMDATPGIDLTRVLAEMREQYEAMAERNRRDAEEWFHTKSAELNKEVSTNTAMIQTSKTEITELRRTLQGLEIELQSQLSMKAGLENTVAETECRYALQLQQIQGLISSIEAQLSELRSEMECQNQEYKMLLDIKTRLEQEIATYRSLLEGQDAKMIGFPSSAGSVSPRSTSVTTTSSASVTTTSNASGRRTSDVRRP
B3: Proteasome inhibitor PI31 subunit (protein, UniProt Q92530 1-271)
chain: MAGLEVLFASAAPAITCRQDALVCFLHWEVVTHGYFGLGVGDQPGPNDKKSELLPAGWNNNKDLYVLRYEYKDGSRKLLVKAITVESSMILNVLEYGSQQVADLTLNLDDYIDAEHLGDFHRTYKNSEELRSRIVSGIITPIHEQWEKANVSSPHREFPPATAREVDPLRIPPHHPHTSRQPPWCDPLGPFVVGGEDLDPFGPRRGGMIVDPLRSGFPRALIDPSSGLPNRLPPGAVPPGARFDPFGPIGTSPPGPNPDHLPPPGYDDMYL
B4: UDP-glucose 6-dehydrogenase (protein, UniProt O60701 1-494)
chain: MFEIKKICCIGAGYVGGPTCSVIAHMCPEIRVTVVDVNESRINAWNSPTLPIYEPGLKEVVESCRGKNLFFSTNIDDAIKEADLVFISVNTPTKTYGMGKGRAADLKYIEACARRIVQNSNGYKIVTEKSTVPVRAAESIRRIFDANTKPNLNLQVLSNPEFLAEGTAIKDLKNPDRVLIGGDETPEGQRAVQALCAVYEHWVPREKILTTNTWSSELSKLAANAFLAQRISSINSISALCEATGADVEEVATAIGMDQRIGNKFLKASVGFGGSCFQKDVLNLVYLCEALNLPEVARYWQQVIDMNDYQRRRFASRIIDSLFNTVTDKKIAILGFAFKKDTGDTRESSSIYISKYLMDEGAHLHIYDPKVPREQIVVDLSHPGVSEDDQVSRLVTISKDPYEACDGAHAVVICTEWDMFKELDYERIHKKMLKPAFIFDGRRVLDGLHNELQTIGFQIETIGKKVSSKRIPYAPSGEIPKFSLQDPPNKKPKV
B5: Interferon-induced protein with tetratricopeptide repeats 3 (protein, UniProt O14879 1-490)
chain: MSEVTKNSLEKILPQLKCHFTWNLFKEDSVSRDLEDRVCNQIEFLNTEFKATMYNLLAYIKHLDGNNEAALECLRQAEELIQQEHADQAEIRSLVTWGNYAWVYYHLGRLSDAQIYVDKVKQTCKKFSNPYSIEYSELDCEEGWTQLKCGRNERAKVCFEKALEEKPNNPEFSSGLAIAMYHLDNHPEKQFSTDVLKQAIELSPDNQYVKVLLGLKLQKMNKEAEGEQFVEEALEKSPCQTDVLRSAAKFYRRKGDLDKAIELFQRVLESTPNNGYLYHQIGCCYKAKVRQMQNTGESEASGNKEMIEALKQYAMDYSNKALEKGLNPLNAYSDLAEFLETECYQTPFNKEVPDAEKQQSHQRYCNLQKYNGKSEDTAVQHGLEGLSISKKSTDKEEIKDQPQNVSENLLPQNAPNYWYLQGLIHKQNGDLLQAAKCYEKELGRLLRDAPSGIGSIFLSASELEDGSEEMGQGAVSSSPRELLSNSEQLN
B6: Regulator of G-protein signaling 10 (protein, UniProt O43665 1-181)
chain: MFNRAVSRLSRKRPPSDIHDSDGSSSSSHQSLKSTAKWAASLENLLEDPEGVKRFREFLKKEFSEENVLFWLACEDFKKMQDKTQMQEKAKEIYMTFLSSKASSQVNVEGQSRLNEKILEEPHPLMFQKLQDQIFNLMKYDSYSRFLKSDLFLKHKRTEEEEEDLPDAQTAAKRASRIYNT
B7: Protein disulfide-isomerase A4 (protein, UniProt P13667 21-645)
chain: VAGAEGPDEDSSNRENAIEDEEEEEEEDDDEEEDDLEVKEENGVLVLNDANFDNFVADKDTVLLEFYAPWCGHCKQFAPEYEKIANILKDKDPPIPVAKIDATSASVLASRFDVSGYPTIKILKKGQAVDYEGSRTQEEIVAKVREVSQPDWTPPPEVTLVLTKENFDEVVNDADIILVEFYAPWCGHCKKLAPEYEKAAKELSKRSPPIPLAKVDATAETDLAKRFDVSGYPTLKIFRKGRPYDYNGPREKYGIVDYMIEQSGPPSKEILTLKQVQEFLKDGDDVIIIGVFKGESDPAYQQYQDAANNLREDYKFHHTFSTEIAKFLKVSQGQLVVMQPEKFQSKYEPRSHMMDVQGSTQDSAIKDFVLKYALPLVGHRKVSNDAKRYTRRPLVVVYYSVDFSFDYRAATQFWRSKVLEVAKDFPEYTFAIADEEDYAGEVKDLGLSESGEDVNAAILDESGKKFAMEPEEFDSDTLREFVTAFKKGKLKPVIKSQPVPKNNKGPVKVVVGKTFDSIVMDPKKDVLIEFYAPWCGHCKQLEPVYNSLAKKYKGQKGLVIAKMDATANDVPSDRYKVEGFPTIYFAPSGDKKNPVKFEGGDRDLEHLSKFIEEHATKLSRTKEEL

What follows are molecules tested against tagged murine neurofibromin (full-length mNf1 cDNA with C-terminal TEV site / StrepII / 6X His tandem affinity tag) (mouse) (UniProt Q04690) (assay: affinity purification with mass spectrometry; tagged mNf1 transfected into NF1 null HEK293 cells; Strep-Tactin XT beads; 4 replicates against tagged empty vector; hits filtered by SAM, t-test and fold change, or found with WT only).

binding	Molecule
binds	Eukaryotic translation initiation factor 3 subunit K (from UniProt Q9UBQ5 1-218)
binds	Insulin-like growth factor 2 mRNA-binding protein 2 (from UniProt Q9Y6M1 1-599)
binds	Keratin, type I cuticular Ha1 (from UniProt Q15323 1-416)
binds	Keratin, type I cuticular Ha6 (from UniProt O76013 1-467)
binds	Keratin, type I cytoskeletal 17 (from UniProt Q04695 1-432)
binds	Keratin, type II cytoskeletal 4 (from UniProt P19013 1-520)
binds	Large proline-rich protein BAG6 (from UniProt P46379 1-1132)
binds	Low-density lipoprotein receptor-related protein 2 (from UniProt P98164 26-4655)
binds	Small nuclear ribonucleoprotein G (from UniProt P62308 1-76)
binds	Splicing factor 3B subunit 1 (from UniProt O75533 1-1304)
binds	βETA-arrestin-2 (from UniProt P32121 1-409)
binds	B1
binds	B2
binds	B3
binds	B4
binds	B5
binds	B6
binds	B7

These molecules were tested against tagged murine neurofibromin (full-length mNf1 cDNA with C-terminal TEV site / StrepII / 6X His tandem affinity tag) (mouse) (UniProt Q04690) (assay: affinity purification with mass spectrometry; tagged mNf1 transfected into WT (NF1-replete) HEK293 cells; cleared lysate on MagStrep type3 XT (Strep-Tactin XT) beads, on ice 30 min, washed three times with Buffer W; bound proteins identified by MS).

binding	Molecule
binds	endogenous human neurofibromin (from UniProt P21359 1-2839)

These are yes or no findings as the source states them, for the method shown. In cells and extracts the contact can be indirect. Here binding means that the protein was enriched with, or labelled near, the bait; the list need not be complete. For some of these results: Sequences can lack the tags named with a protein.
